From patent US6814967B2, “Antibodies to cortistatin: neuropeptides, compositions and methods” (The Scripps Research Institute, priority 1996, dated 2004)
At least one compound was matched to its structure with a doubt left.

Legend:
[1] = test system: cerebral cortex (visual cortex) local EEG; experiment: Local EEG activity in visual cortex of anesthetized rats, microiontophoretic application; format: in vivo, rat; conditions: applied alone, 100-250 nA
Experimental: To investigate further whether cortistatin also interacts with cholinergic systems that regulate cortical function, the effects of cortistatin on ACh-induced desynchronization of EEG in the cerebral cortex of anesthetized rats was determined. Thus, ACh and cortistatin was microiontophoretically (100-250 nA) applied on local EEG activity recorded in the visual cortex. For the data shown in FIG. 7G, the results from the experimental groups were derived from averaged EEG spectral activity determinations and expressed as means Å s.e.m. (Asterisk represents significance levels P<0.05 from baseline; two asterisks represent significance levels P<0.05 from ACh; ANOVA).

hippocampal CA1 neurons = experiment: Paired-pulse (PP) responses in CA1 neurons in vivo, iontophoretic application; design: species or system rat; conditions: applied alone iontophoretically; ACh 0.9 M, somatostatin 1.5 mM; 80 ms interstimulus interval

## CC(=O)OCC[N+](C)(C)C [ACh, acetylcholine, reference compound]
[1]
  local EEG (averaged EEG power spectra): markedly desynchronized the local EEG
Hippocampal CA1 neurons
  effect on PP responses (PP inhibition) in CA1: reduced PP inhibition
